Source: article PMC11266705, “Elf1 promotes transcription-coupled repair in yeast by using its C-terminal domain to bind TFIIH” (Nature Communications, 2024)
No constants are given. Whether binding was seen depends on the method and setting. Where a sequence is shown, tags or fusion partners need not be part of it.

What was measured:
[1] = biological target: T1, GST-tagged full-length Elf1 (S. cerevisiae) (UniProt P36053); assay: pull-down; GST beads with GST-tagged Elf1 proteins mixed with purified PH domain of p62; 23 °C, 1 h; washed twice in 20 mM HEPES pH 7.4, 5% glycerol; SDS-PAGE; both purified
T1 sequence: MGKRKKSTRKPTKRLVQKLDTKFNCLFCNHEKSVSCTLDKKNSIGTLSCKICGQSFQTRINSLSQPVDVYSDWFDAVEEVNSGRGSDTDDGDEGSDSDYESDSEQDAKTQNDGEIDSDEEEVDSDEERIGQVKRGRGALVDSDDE

[2] = biological target: T2, GST-Elf1 N-terminal half (residues 1–85) (S. cerevisiae) (UniProt P36053); assay: as above
T2 sequence: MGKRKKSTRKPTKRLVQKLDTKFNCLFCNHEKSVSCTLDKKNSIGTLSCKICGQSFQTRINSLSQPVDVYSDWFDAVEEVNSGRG

binding [1]: no binding | binding [2]: no binding
B1: PH domain (1–115) of TFIIH p62 subunit (domain or fragment, UniProt P32776 1-115)
chain: MSHSGAAIFEKVSGIIAINEDVSPAELTWRSTDGDKVHTVVLSTIDKLQATPASSEKMMLRLIGKVDESKKRKDNEGNEVVPKPQRHMFSFNNRTVMDNIKMTLQQIISRYKDAD
